Our source for the log2 fold change values is the supplement of paper PMC10849652.

Protein sequences, listed by entry. Tags and fused reporters are not part of them. Lines headed by an entry give the natural chain unless they say otherwise; changes in a name come on top.
UniProt P15144: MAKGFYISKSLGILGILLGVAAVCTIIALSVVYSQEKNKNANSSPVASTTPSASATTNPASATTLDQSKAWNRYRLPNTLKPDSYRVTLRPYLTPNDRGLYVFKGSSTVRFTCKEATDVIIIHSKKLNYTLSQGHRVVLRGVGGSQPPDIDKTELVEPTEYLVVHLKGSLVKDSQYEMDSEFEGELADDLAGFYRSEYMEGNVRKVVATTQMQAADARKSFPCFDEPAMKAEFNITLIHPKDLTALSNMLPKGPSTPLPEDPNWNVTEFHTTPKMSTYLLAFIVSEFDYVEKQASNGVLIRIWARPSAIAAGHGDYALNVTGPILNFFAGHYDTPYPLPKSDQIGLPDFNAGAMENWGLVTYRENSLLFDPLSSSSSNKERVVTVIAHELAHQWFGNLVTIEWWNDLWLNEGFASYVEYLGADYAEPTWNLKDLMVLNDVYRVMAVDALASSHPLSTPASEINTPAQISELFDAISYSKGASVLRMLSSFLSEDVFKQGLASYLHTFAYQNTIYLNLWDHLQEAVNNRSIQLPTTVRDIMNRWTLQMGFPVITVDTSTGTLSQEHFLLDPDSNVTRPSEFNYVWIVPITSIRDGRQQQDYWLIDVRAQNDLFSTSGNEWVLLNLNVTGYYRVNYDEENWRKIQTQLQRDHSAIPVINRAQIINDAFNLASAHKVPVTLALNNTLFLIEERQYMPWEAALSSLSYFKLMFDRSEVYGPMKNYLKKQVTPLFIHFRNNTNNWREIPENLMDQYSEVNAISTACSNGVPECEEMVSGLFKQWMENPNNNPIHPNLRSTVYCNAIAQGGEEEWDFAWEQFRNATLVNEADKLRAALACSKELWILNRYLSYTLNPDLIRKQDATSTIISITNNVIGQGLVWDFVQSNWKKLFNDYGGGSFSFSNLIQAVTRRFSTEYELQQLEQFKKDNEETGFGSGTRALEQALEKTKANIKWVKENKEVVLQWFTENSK
UniProt P50995, whole entry, looked up: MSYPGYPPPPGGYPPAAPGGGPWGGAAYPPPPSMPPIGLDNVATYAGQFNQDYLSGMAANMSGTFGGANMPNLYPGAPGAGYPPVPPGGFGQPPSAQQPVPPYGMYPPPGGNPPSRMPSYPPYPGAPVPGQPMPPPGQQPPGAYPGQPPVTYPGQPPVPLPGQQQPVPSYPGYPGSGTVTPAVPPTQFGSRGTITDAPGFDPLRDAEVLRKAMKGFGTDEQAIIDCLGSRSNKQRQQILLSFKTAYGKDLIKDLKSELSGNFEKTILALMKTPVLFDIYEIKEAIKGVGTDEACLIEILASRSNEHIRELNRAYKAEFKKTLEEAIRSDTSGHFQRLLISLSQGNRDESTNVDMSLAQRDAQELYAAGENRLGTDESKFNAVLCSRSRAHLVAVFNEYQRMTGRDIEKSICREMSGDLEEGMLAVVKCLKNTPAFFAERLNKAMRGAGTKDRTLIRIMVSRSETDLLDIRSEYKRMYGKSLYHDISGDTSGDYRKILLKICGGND
UniProt P16157: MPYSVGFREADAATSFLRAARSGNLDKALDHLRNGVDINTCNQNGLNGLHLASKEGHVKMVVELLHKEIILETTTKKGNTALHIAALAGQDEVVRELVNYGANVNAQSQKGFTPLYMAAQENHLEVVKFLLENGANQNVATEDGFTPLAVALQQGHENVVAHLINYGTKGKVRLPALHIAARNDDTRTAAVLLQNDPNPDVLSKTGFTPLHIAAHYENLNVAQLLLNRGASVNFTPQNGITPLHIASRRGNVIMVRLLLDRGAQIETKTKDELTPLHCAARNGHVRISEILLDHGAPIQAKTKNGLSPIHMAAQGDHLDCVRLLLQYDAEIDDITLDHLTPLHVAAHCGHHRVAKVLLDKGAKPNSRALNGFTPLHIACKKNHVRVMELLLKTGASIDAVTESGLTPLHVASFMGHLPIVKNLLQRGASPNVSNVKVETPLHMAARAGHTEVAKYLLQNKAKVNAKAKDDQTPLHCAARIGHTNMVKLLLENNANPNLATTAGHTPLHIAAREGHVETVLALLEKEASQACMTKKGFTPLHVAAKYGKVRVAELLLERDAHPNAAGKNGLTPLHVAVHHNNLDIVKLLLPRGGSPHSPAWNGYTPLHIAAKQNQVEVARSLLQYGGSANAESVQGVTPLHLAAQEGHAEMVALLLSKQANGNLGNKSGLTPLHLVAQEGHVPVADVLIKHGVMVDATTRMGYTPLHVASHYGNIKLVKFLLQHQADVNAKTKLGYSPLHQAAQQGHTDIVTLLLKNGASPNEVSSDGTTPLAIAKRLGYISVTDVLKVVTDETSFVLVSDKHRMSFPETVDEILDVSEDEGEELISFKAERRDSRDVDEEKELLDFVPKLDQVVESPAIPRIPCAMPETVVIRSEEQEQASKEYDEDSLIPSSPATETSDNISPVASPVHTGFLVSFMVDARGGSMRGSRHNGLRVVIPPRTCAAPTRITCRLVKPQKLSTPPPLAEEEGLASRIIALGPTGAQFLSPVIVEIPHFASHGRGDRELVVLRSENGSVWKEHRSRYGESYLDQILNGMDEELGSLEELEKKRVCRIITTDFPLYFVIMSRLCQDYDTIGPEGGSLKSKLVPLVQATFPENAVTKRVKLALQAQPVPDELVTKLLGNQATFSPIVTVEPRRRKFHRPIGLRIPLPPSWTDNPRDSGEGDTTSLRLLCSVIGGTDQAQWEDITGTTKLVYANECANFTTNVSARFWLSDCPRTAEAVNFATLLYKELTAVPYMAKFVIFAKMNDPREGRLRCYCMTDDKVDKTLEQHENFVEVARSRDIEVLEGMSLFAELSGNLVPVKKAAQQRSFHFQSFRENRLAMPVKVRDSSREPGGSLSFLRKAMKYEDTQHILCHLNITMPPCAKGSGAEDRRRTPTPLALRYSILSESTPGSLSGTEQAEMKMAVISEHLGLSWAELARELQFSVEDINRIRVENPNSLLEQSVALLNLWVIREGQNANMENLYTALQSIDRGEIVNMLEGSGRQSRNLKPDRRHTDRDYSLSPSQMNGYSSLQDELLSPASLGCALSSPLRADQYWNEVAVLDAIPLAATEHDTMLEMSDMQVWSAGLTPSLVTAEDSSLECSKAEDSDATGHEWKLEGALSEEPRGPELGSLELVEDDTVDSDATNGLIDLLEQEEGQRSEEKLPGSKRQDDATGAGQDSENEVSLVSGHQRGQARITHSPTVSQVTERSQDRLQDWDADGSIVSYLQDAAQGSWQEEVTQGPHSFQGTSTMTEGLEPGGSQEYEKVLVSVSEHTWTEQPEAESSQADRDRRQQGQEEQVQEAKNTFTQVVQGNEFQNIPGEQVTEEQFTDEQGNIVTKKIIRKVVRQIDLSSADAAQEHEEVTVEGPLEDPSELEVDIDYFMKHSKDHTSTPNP
UniProt O15084: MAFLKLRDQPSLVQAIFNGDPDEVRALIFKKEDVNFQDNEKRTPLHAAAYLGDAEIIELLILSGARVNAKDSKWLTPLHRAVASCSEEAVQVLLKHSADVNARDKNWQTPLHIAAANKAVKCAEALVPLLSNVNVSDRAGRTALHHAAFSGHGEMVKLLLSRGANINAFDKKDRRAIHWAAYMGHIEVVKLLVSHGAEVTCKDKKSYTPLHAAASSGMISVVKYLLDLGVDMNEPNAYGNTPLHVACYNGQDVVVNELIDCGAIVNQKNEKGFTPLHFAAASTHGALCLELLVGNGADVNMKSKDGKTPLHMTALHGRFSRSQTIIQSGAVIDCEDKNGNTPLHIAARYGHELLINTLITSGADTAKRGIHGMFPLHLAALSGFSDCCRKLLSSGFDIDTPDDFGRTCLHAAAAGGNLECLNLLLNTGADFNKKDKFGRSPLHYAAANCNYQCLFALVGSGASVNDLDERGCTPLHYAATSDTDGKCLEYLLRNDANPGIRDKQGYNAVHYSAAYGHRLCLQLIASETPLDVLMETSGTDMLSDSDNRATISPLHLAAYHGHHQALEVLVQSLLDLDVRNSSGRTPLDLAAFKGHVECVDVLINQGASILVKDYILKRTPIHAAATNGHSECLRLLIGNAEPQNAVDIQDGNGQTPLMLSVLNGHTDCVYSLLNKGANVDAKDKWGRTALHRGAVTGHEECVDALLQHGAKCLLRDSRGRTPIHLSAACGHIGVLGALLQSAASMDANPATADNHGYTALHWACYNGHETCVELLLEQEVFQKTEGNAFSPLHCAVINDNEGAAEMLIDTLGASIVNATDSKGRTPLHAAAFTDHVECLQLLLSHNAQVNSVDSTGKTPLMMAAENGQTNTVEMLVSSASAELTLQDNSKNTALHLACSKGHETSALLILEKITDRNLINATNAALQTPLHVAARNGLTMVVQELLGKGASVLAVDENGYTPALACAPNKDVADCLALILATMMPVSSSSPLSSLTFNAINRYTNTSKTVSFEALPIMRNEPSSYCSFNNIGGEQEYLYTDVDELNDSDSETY
UniProt Q9UJX5, whole entry, looked up: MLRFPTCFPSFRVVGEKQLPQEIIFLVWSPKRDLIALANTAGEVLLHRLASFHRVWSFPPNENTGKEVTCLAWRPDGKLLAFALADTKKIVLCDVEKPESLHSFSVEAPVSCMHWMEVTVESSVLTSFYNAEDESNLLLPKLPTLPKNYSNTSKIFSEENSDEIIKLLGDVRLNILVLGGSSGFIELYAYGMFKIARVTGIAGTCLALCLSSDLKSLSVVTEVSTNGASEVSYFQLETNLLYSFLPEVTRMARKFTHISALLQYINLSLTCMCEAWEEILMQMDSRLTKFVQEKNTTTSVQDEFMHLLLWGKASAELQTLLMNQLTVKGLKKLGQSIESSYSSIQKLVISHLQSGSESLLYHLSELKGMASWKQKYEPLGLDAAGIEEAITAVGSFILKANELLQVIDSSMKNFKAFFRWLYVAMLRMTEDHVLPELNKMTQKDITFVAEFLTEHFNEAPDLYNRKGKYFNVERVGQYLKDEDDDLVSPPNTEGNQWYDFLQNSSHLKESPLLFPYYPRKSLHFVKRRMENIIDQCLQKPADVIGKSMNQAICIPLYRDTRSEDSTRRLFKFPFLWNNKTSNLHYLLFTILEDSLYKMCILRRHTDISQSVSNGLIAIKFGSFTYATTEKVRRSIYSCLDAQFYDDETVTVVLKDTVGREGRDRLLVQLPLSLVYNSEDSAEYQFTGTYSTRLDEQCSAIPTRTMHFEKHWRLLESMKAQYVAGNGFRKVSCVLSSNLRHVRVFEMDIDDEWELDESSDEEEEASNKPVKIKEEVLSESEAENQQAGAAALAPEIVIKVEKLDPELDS
UniProt P53680: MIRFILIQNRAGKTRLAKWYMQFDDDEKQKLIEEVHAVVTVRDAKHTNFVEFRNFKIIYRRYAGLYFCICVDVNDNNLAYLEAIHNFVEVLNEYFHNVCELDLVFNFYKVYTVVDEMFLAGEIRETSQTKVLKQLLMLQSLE
UniProt Q10567: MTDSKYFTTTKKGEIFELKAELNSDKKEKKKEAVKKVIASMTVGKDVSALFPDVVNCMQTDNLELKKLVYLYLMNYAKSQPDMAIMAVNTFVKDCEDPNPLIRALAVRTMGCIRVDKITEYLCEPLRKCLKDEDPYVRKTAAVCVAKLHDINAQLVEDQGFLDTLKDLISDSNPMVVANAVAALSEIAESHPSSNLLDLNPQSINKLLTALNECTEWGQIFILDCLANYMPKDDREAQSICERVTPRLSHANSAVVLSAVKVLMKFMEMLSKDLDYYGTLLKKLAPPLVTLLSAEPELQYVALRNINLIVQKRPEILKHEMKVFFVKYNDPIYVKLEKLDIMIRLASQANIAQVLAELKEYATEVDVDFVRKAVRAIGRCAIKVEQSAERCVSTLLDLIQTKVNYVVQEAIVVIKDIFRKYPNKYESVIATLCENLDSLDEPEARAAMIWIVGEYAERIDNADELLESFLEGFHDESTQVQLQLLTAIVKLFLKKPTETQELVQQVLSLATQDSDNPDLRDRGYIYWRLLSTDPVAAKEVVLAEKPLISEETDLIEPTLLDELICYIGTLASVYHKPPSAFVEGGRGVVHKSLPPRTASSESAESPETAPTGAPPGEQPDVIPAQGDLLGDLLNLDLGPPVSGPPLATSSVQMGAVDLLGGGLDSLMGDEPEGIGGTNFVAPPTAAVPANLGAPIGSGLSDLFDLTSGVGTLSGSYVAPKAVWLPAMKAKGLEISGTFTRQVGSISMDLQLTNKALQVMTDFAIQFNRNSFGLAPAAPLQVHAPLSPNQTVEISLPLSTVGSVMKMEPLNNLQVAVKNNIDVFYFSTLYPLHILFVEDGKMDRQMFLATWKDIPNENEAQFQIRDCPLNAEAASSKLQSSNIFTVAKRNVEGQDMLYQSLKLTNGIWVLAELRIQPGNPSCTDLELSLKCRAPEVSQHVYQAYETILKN

The other results are listed elsewhere or left out.

Compound in the test: CN1CCC(CNc2ccc3ncc(-c4cccc(OC(F)(F)F)c4)n3n2)CC1
The test can be described thus: log2 fold change, soluble protein after heating vs DMSO (PISA); higher = thermal stabilisation; K562 lysate, 10 uM; active = over 0.2 and 3.5 SD of the protein, either way, in both replicates (recomputed). Summed up: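 Following dounce homogenisation of K562 pellets in PBS pH 7.4 with 1 mM MgCl2, crude extract at 1 mg/mL protein was incubated for 30 min with 10 μM compound. Aliquots were then heated for 3 min over 48°C-58°C and pooled, NP-40 was added to 0.5% at 4°C, and soluble protein was recovered as the supernatant at 21,000xg for 90 min. Channel-sum-equalised TMTpro 16plex LC-MS/MS quantified this protein. Each value, from duplicates, is a log-two fold change in thermal stability relative to solvent controls.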
In the case of ANKRD54 (UniProt Q6NXT1), the log2 fold change was inactive: 0.011.

As for ALDH6A1 (UniProt Q02252), the log2 fold change is inactive: 0.022.

Consider ALKBH3 (UniProt Q96Q83), for which the log2 fold change is inactive: -0.026.

Take AMD1 (UniProt P17707): the log2 fold change is inactive: 0.127.

As for ANPEP (UniProt P15144), the log2 fold change was inactive: 0.161.

ANXA11 (UniProt P50995): the log2 fold change is inactive: -0.01.

Consider ALDH1A1 (UniProt P00352), for which the log2 fold change is inactive: -0.09.

As to ALDH1B1 (UniProt P30837), the log2 fold change was inactive: 0.108.

ANK1 isoform 14 (UniProt P16157): the log2 fold change was inactive: -0.062.

As for AP3S1 (UniProt Q92572), the log2 fold change is inactive: 0.039.

Turning to ANKRD28 (UniProt O15084), the log2 fold change was inactive: -0.031.

Consider ALS2 (UniProt Q96Q42), for which the log2 fold change was inactive: -0.064.

Regarding ANTXR2 isoform 4 (UniProt P58335), the log2 fold change was inactive: 0.107.

Take ANAPC4 isoform 3 (UniProt Q9UJX5): the log2 fold change is inactive: 0.01.

In the case of ALMS1 (UniProt Q8TCU4), the log2 fold change was inactive: 0.039.

In the case of AKT1S1 isoform 3 (UniProt Q96B36), the log2 fold change was inactive: 0.03.

On to ALDH18A1 (UniProt P54886), for which the log2 fold change is inactive: -0.005.

With AP2S1 (UniProt P53680), the log2 fold change was inactive: 0.016.

On to AP3D1 isoform 5 (UniProt O14617), for which the log2 fold change is inactive: 0.034.

As to AP1B1 (UniProt Q10567), the log2 fold change was inactive: 0.048.

Turning to ALG2 (UniProt Q9H553), the log2 fold change was inactive: -0.007.

For ALDH2 (UniProt P05091), the log2 fold change is inactive: -0.009.
